Laboratory results: article PMC6215009
No constants are given. Whether binding was seen depends on the method and setting. In cells and extracts the contact can be indirect. Some binding calls cover weakened binding; strength is not graded here. Where a sequence is shown, tags or fusion partners need not be part of it.

Assays:
[1] = biological target: Flag-tagged (2x) mAsxl1 (pcDNA3, transfected) (mouse) (UniProt P59598); test: co-IP; HEK293T transfected with Flag-Asxl1 and Myc-tagged HCF-1 truncation mutants; IP anti-Flag, WB anti-Myc
[2] = biological target: T1, Flag-HCF-1 (aa1-434), expressed in cells (human) (UniProt P51610); test: co-IP; GFP-tagged Asxl1 fragments with Flag-HCF-1 (aa1-434)
T1 sequence: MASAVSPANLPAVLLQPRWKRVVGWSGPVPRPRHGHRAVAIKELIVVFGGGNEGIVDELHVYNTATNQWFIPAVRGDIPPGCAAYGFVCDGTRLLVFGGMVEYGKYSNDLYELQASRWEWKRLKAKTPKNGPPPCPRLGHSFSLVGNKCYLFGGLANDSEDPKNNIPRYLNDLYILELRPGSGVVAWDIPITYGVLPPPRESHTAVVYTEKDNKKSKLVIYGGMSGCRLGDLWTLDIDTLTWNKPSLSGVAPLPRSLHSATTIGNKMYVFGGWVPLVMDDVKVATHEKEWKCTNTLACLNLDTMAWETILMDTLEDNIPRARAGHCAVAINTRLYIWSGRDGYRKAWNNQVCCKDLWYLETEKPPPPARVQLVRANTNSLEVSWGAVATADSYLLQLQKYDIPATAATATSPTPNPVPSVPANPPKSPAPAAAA

[3] = biological target: T2, GST-fused Asxl1 (aa1193-1514) (mouse) (UniProt P59598); test: pull-down; 2 ug of GST-Asxl1 (aa1193-1514) (or GST) incubated with 10 uL of in vitro translated Flag-HCF-1 (aa1-434); WB anti-Flag M2; only the target purified
T2 sequence: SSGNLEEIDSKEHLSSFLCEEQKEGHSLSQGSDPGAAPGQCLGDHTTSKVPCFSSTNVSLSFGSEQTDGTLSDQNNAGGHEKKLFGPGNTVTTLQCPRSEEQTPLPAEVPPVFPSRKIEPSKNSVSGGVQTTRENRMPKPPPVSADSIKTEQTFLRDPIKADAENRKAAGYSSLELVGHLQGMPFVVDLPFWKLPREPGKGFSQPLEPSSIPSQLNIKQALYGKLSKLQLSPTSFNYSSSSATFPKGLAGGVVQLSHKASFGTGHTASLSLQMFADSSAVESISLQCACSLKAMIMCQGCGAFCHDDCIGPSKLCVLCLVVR

B1: Myc-tagged hHCF-1 (aa1-434) (domain or fragment, UniProt P51610 1-434)
chain: MASAVSPANLPAVLLQPRWKRVVGWSGPVPRPRHGHRAVAIKELIVVFGGGNEGIVDELHVYNTATNQWFIPAVRGDIPPGCAAYGFVCDGTRLLVFGGMVEYGKYSNDLYELQASRWEWKRLKAKTPKNGPPPCPRLGHSFSLVGNKCYLFGGLANDSEDPKNNIPRYLNDLYILELRPGSGVVAWDIPITYGVLPPPRESHTAVVYTEKDNKKSKLVIYGGMSGCRLGDLWTLDIDTLTWNKPSLSGVAPLPRSLHSATTIGNKMYVFGGWVPLVMDDVKVATHEKEWKCTNTLACLNLDTMAWETILMDTLEDNIPRARAGHCAVAINTRLYIWSGRDGYRKAWNNQVCCKDLWYLETEKPPPPARVQLVRANTNSLEVSWGAVATADSYLLQLQKYDIPATAATATSPTPNPVPSVPANPPKSPAPAAAA
binding [1]: binds

B2: GFP-tagged Asxl1 (aa1193-1514) (domain or fragment, UniProt P59598 1193-1514)
chain: SSGNLEEIDSKEHLSSFLCEEQKEGHSLSQGSDPGAAPGQCLGDHTTSKVPCFSSTNVSLSFGSEQTDGTLSDQNNAGGHEKKLFGPGNTVTTLQCPRSEEQTPLPAEVPPVFPSRKIEPSKNSVSGGVQTTRENRMPKPPPVSADSIKTEQTFLRDPIKADAENRKAAGYSSLELVGHLQGMPFVVDLPFWKLPREPGKGFSQPLEPSSIPSQLNIKQALYGKLSKLQLSPTSFNYSSSSATFPKGLAGGVVQLSHKASFGTGHTASLSLQMFADSSAVESISLQCACSLKAMIMCQGCGAFCHDDCIGPSKLCVLCLVVR
binding [2]: binds

B3: Flag-HCF-1 (aa1-434), in vitro translated (domain or fragment, UniProt P51610 1-434)
chain: MASAVSPANLPAVLLQPRWKRVVGWSGPVPRPRHGHRAVAIKELIVVFGGGNEGIVDELHVYNTATNQWFIPAVRGDIPPGCAAYGFVCDGTRLLVFGGMVEYGKYSNDLYELQASRWEWKRLKAKTPKNGPPPCPRLGHSFSLVGNKCYLFGGLANDSEDPKNNIPRYLNDLYILELRPGSGVVAWDIPITYGVLPPPRESHTAVVYTEKDNKKSKLVIYGGMSGCRLGDLWTLDIDTLTWNKPSLSGVAPLPRSLHSATTIGNKMYVFGGWVPLVMDDVKVATHEKEWKCTNTLACLNLDTMAWETILMDTLEDNIPRARAGHCAVAINTRLYIWSGRDGYRKAWNNQVCCKDLWYLETEKPPPPARVQLVRANTNSLEVSWGAVATADSYLLQLQKYDIPATAATATSPTPNPVPSVPANPPKSPAPAAAA
binding [3]: binds
